From patent publication EP1283052A1, “Pharmaceutical composition containing caspase-8 and /or caspase-9 useful for overcoming glucocorticoid- and cancer therapy-induced apoptosis of tumours” (Deutsches Krebsforschungszentrum Stiftung des öffentlichen …, priority 2001, dated 2003)
At least one structure is not confirmed: it was looked up by name or label, or the drawing left a doubt.

Tested on: P5, P693 and CEM cells
Test: Mitochondrial membrane potential by JC-1 staining and flow cytometry
Assay type: cell-based, human
Details: 24 h, DEX 1 µM; Fig. 3a
Protocol: • (a) P5, P693 or CEM cells, either untreated (CO) or stimulated with cisplatin (CIS, 2 µg/ml) were incubated in the absence (white bars) or presence (black bars) of DEX (1 µM). 24 h later cells were stained with the cationic dye JC-1 which indicates mitochondrial depolarization by an increase in green fluorescence. The percentage of green-fluorescent cells was determined by flow cytometry. • (b) P5 cells were treated as described above. 6 or 24 h later mitochondrial fractions were prepared and assayed by Western blotting using a monoclonal antibody which specifically detects the 15 kDa cytochrome c protein. The results depicted here have been performed three times with similar outcome.
• (A) Cell culture. […] The mice were given 0.28 mg/L DEX in drinking water, and the amount of water consumed was monitored. […] The tumour volumes were measured using callipers, and calculated using, as an approximation, the formula for volume of a hemi-ellipsoid: π(width^2 x length)/6. […] Early apoptotic changes were identified by staining of cells with fluoresceinthiocyanate (FITC)-conjugated annexin V and propidium iodide (Becton Dickinson, Heidelberg, Germany) and analysed by flow cytometry (FACScan, Becton Dickinson) as described (Herr et al., EMBO J. 16 (1997), 6200-6208) • (E) Immunohistochemistry. […] Protein expression was detected by Western blotting as described (Herr et al., 1997). […]

C[C@@H]1C[C@H]2[C@@H]3CCC4=CC(=O)C=C[C@]4(C)[C@@]3(F)[C@@H](O)C[C@]2(C)[C@@]1(O)C(=O)CO [DEX, dexamethasone] was tested, and the “percentage of green fluorescence (mitochondrial damage)” value was “increased the percentage of green fluorescence”.
